In article PMC10163288:
This is one part of the list.

B1: il2ra_site2_3nfp_normal_mot_HHH_b1_00660_af2_000000090_0001_40_57_H_._HHH_b2_07007_0001_0000300027_0000001_0_1_af2pred_0001_1_af2pred_swapped (protein)
chain: SSSSDEEEARELLEEAKRLAEEGNPEEARKLLEEASKIAVESNNHELFALITEVLEKVLKLSSSS
B2: il2ra_site2_2erj_sap_14_mot_HHH_b2_05722_000000033_0001_22_38_H_._HHH_b1_00927_0001_0001900021_0000001_0_0001 (protein)
chain: SSSSSDRVREVYEIVLRLAREFNLDAEQIVALIERAEELLERGVSEEEIEELLEEQAKRLSSSSS
B3: il2ra_site1_1z92_sap_16_mot_ems_3hM_2197_000000181_0001_1_19_H_._HHH_b1_04507_af2_0001_0000800028_0000001_0_0001 (protein)
chain: DEEEAEELLREILKEHGNEEVLERDLERTERLFGDPKEALFALINAALQIHGDPRLKEALELVRK
B4: il2ra_site2_3nfp_normal_mot_HHH_b2_05281_000000198_0001_39_56_H_._HHH_b1_02402_0001_0000900024_0000001_0 (protein)
chain: SSSSDEEEIRELIQRAREALEEGDRHRAFFIVAEAAFIAWQNNNEEALRELSQLALEIFERSSSS
B5: il2ra_site1_3nfp_normal_mot_22aa8d8ad8dce7f663ea8fa348a52261_0001_000000276_0001_17_32_H_._a3b61943b7af24100a309c62926c5c00_0001_0001_0000100005_0000001_0_af2pr … (protein)
chain: SLEEKFEKVAREVGLPPVDIRAVKRIIEEARERGIPPERIIEALRDLARALRDPDLEEVVELLER
B6: il2ra_site2_2erj_normal_mot_HHH_b1_08185_000000063_0001_41_55_H_._HHH_b1_07623_af2_0001_0000600036_0000001_0 (protein)
chain: SSSSSDTVEVAVELAEEAYEQGDRAALELILRYLELSLKDTGDPEVEKAYERVEELLERLSSSSS
B7: il2ra_site2_2erj_normal_mot_HHH_b1_00941_000000060_0001_45_58_H_._HHH_b2_00695_0001_0000200006_0000001_0_af2pred_0001_af2pred (protein)
chain: SSSSSSDVEERVKELLEEAEKIRDLKEALEVLQEASRLAAERDDEELLELIDEVLRRLSSSSSSS
B8: il2ra_site1_2b5i_sap_9_mot_HHH_b1_08157_af2_000000055_0001_42_55_H_._HHH_b2_05719_af2_0001_0000400032_0000001_0_0001 (protein)
chain: SSSSNEDRFIARVIWHLVARFNLSREDIQELHRLAIELLERGVSPEEIEELLRELAEELGSSSSS
B9: il2ra_site2_3nfp_sap_18_mot_HHH_b1_03716_000000142_0001_40_56_H_._HHH_b2_01825_0002_0000300055_0000001_1_0001 (protein)
chain: SSSSSESEEYLRAALELARRAIEEGDREAAERILKMIRLAAEDAKDEEALRLAEELLEEVGSSSS
B10: il2ra_site1_3nfp_sap_13_mot_HHH_b1_01335_af2_000000258_0001_39_53_H_._dc5ea9c2c6cb1649bd85fc05aca2b482_0001_0001_0000400028_0000001_0_0001_af2pred_0001_af2pred_ … (protein)
chain: SEVEKLVEEIEKLDPILAELLRIALEKAKKDPEAARRIIKLAEEDAERAGDPEVAELIHEVLKLT
B11: il2ra_site1_3nfp_normal_mot_891b8491a18eb46c9ad5c1702b87f9cc_0001_000000120_0001_18_33_H_._a977d6a2cfab3d20b8a840e59b1ed461_0001_1_0001_0000200009_0000001_0 (protein)
chain: DEELERVKELLEELGDPQARALVKFLENAFKRARVPPEYVLKALEEALEKLGNPELVRLLQEAIK
B12: il2ra_site1_2b5i_sap_21_mot_0921d739bb7547bb6fa23329820ad62a_0001_000000012_0001_54_65_H_._69dbefaddb7cc2bb460f5b2b997c8fad_0001_0001_0000100008_0000001_0_0001 (protein)
chain: SDEEAIEWAVEHAARWLNVPSVEVEVRNGEVHVEIEGDDHAARALAVFARRLAEVLNVKLEVEVR
B13: il2ra_site1_3nfp_normal_mot_ems_3hC_921_af2_000000143_0001_22_40_H_._HHH_b2_00024_0001_0000100003_0000001_0 (protein)
chain: SSSSSSDVLERAARLLDRIIKIKDEEEARELLEEAEELAKEIGDPITEWLVRQLKEHKSSSSSSS
B14: il2ra_site2_3nfp_normal_mot_ems_3hC_474_af2_000000246_0001_42_60_H_._HHH_b2_06761_0001_0000600070_0000001_0_af2pred_0001_af2pred (protein)
chain: SSSDESEEIFERAEKELERLLEEGDEEEAQHATLIAASLLDELGDEELARRLAELLARFLDSSSS
B15: il2ra_site1_1z92_normal_mot_HHH_b1_07828_af2_000000107_0001_18_34_H_._HHH_b1_02447_af2_0001_0000300012_0000001_0 (protein)
chain: SSSSDLEEAIEILLQAIRRAIEAGNEKAAERFIEFAKEQIEDSGDPELERILRELEELLRSSSSS
B16: il2ra_site2_3nfp_sap_26_mot_HHH_b2_05281_000000198_0001_39_56_H_._cd2bdebb681eda360e2a82a7dcebc495_0001_1_af2_0001_0000200009_0000001_0_0001 (protein)
chain: SSSSELEEYVKAAIDLLRRAVEEGDERAVEHLAHLAEATAEDINNPELLEEVQRLVKEFEESSSS
B17: il2ra_site2_3nfp_sap_35_mot_HHH_b2_01087_000000001_0001_1_15_H_._HHH_b2_01975_0002_0000200022_0000001_0_0001_af2pred_0001_af2pred (protein)
chain: SSSSSSDLEEEAEELVEEAKEKADEHDRFALRADRIFAELAGDPKLFEEAKELAKKDLSSSSSSS
B18: il2ra_site1_2b5i_sap_22_mot_HHH_b2_01283_af2_000000044_0001_1_16_H_._HHH_b1_00972_af2_0001_0000500028_0000001_0_0001_af2pred_0001_af2pred (protein)
chain: SSSSSDTEEAVELFRKANELFRNGNPEEAREVLEQAEEIAEEAGSRSLLRMIRAALELLESSSSS

target: il2ra, P01589; assay: yeast display titration

Apparent Kd, inactive:
B1 no binding seen, B2 no binding seen, B3 no binding seen, B4 no binding seen, B5 no binding seen, B6 no binding seen, B7 no binding seen, B8 no binding seen, B9 no binding seen, B10 no binding seen, B11 no binding seen, B12 no binding seen, B13 no binding seen, B14 no binding seen, B15 no binding seen, B16 no binding seen, B17 no binding seen, B18 no binding seen
